{"source": "the supplement of paper PMC8728848", "binders": {"B1": {"name": "OS9 (Arabidopsis thaliana) (protein)", "chain": "MRGSHHHHHHGMASMTGGQQMGRDLYDDDDKSRLQIFPAHLVGTFSRNNREPKYKIEFLPEDSPFHPGDNLESMVMLDKHGNRFLCYLPKEEKATSGWTSSQQNISTVMMETQQLVKLKTPDELLQPLSEKCLFRQEGWWSYEFCHQKYVRQLHVEDENKIVQEFFLGTFDPEATAAFNQTVSDASTDASQRYHSHVYTNGTTCDLTGSPAEVEVRFVCAETRAMVTSITELSTCKYALTVQCPTLCKHPLFQLEKPVSHTIHCNAIPVEEDATRNKEEQAVDESPKMIADS"}}, "assay_in_all_cases": "glycan array binding signal (z-score within array); higher = stronger binding", "conditions_in_all_cases": "glycan notation: IUPAC condensed, linker removed; mutation: R201A", "key": {"[1]": {"molecular_target": "Gal(b1-4)GlcNAc(b1-3)Gal(b1-4)GlcNAc(b1-3)[Gal(b1-4)GlcNAc(b1-3)Gal(b1-4)GlcNAc(b1-6)]GalNAc", "method_in_brief": "(§1)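 From the Consortium for Functional Glycomics database, 3228 arrays were curated, keeping only those whose protein sequence was available. Binding is given as a within-array Z-score averaged across arrays sharing a protein sequence and across linkers. Negative Z-scores can be read as non-binding.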"}, "[2]": {"molecular_target": "Gal(b1-4)GlcNAc(b1-3)Gal(b1-4)GlcNAc(b1-6)[Gal(b1-3)]GalNAc", "method_in_brief": "as §1"}, "[3]": {"molecular_target": "Gal(b1-4)GlcNAc(b1-3)Gal(b1-4)[Fuc(a1-3)]GlcNAc(b1-3)Gal(b1-4)[Fuc(a1-3)]GlcNAc", "method_in_brief": "as §1"}, "[4]": {"molecular_target": "Gal(b1-4)GlcNAc(b1-3)GalNAc", "method_in_brief": "as §1"}, "[5]": {"molecular_target": "Gal(b1-4)GlcNAc(b1-3)[Fuc(a1-3)GlcNAc(b1-6)]Gal(b1-4)Glc", "method_in_brief": "as §1"}, "[6]": {"molecular_target": "Gal(b1-4)GlcNAc(b1-3)[Gal(b1-4)GlcNAc(b1-6)]Gal(b1-4)GlcNAc", "method_in_brief": "as §1"}, "[7]": {"molecular_target": "Gal(b1-4)GlcNAc(b1-3)[GlcNAc(b1-6)]Gal(b1-4)GlcNAc", "method_in_brief": "as §1"}, "[8]": {"molecular_target": "Gal(b1-4)GlcNAc(b1-6)Gal(b1-4)GlcNAc", "method_in_brief": "as §1"}, "[9]": {"molecular_target": "Gal(b1-4)GlcNAc(b1-6)GalNAc", "method_in_brief": "as §1"}, "[10]": {"molecular_target": "Gal(b1-4)GlcNAc(b1-6)[Gal(b1-3)]GalNAc", "method_in_brief": "as §1"}, "[11]": {"molecular_target": "Gal(b1-4)GlcNAc(b1-6)[Gal(b1-4)GlcNAc(b1-3)]GalNAc", "method_in_brief": "as §1"}, "Gal(b1-4)GlcNAc6P": {"molecular_target": "Gal(b1-4)GlcNAc6P", "method_in_brief": "as §1"}, "Gal(b1-6)Gal": {"molecular_target": "Gal(b1-6)Gal", "method_in_brief": "as §1"}, "Gal3S(b1-3)GalNAc": {"molecular_target": "Gal3S(b1-3)GalNAc", "method_in_brief": "as §1"}, "Gal3S(b1-3)GlcNAc": {"molecular_target": "Gal3S(b1-3)GlcNAc", "method_in_brief": "as §1"}, "[12]": {"molecular_target": "Gal3S(b1-3)[Fuc(a1-4)]GlcNAc", "method_in_brief": "as §1"}, "Gal3S(b1-4)Glc": {"molecular_target": "Gal3S(b1-4)Glc", "method_in_brief": "as §1"}, "Gal3S(b1-4)Glc6S": {"molecular_target": "Gal3S(b1-4)Glc6S", "method_in_brief": "as §1"}, "Gal3S(b1-4)GlcNAc": {"molecular_target": "Gal3S(b1-4)GlcNAc", "method_in_brief": "as §1"}, "[13]": {"molecular_target": "Gal3S(b1-4)[Fuc(a1-3)]Glc6S", "method_in_brief": "as §1"}, "[14]": {"molecular_target": "Gal3S(b1-4)[Fuc(a1-3)]GlcNAc", "method_in_brief": "as §1"}, "[15]": {"molecular_target": "Gal3S(b1-4)[Fuc(a1-3)]GlcNAc6S", "method_in_brief": "as §1"}, "Gal3S4S(b1-4)GlcNAc": {"molecular_target": "Gal3S4S(b1-4)GlcNAc", "method_in_brief": "as §1"}, "Gal3S6S(b1-4)GlcNAc": {"molecular_target": "Gal3S6S(b1-4)GlcNAc", "method_in_brief": "as §1"}, "Gal3S6S(b1-4)GlcNAc6S": {"molecular_target": "Gal3S6S(b1-4)GlcNAc6S", "method_in_brief": "as §1"}, "Gal4S(b1-4)GlcNAc": {"molecular_target": "Gal4S(b1-4)GlcNAc", "method_in_brief": "as §1"}, "Gal4S6S(b1-4)GlcNAc": {"molecular_target": "Gal4S6S(b1-4)GlcNAc", "method_in_brief": "as §1"}, "Gal6P(b1-4)GlcNAc": {"molecular_target": "Gal6P(b1-4)GlcNAc", "method_in_brief": "as §1"}, "Gal6S(b1-3)GlcNAc": {"molecular_target": "Gal6S(b1-3)GlcNAc", "method_in_brief": "as §1"}, "Gal6S(b1-3)GlcNAc6S": {"molecular_target": "Gal6S(b1-3)GlcNAc6S", "method_in_brief": "as §1"}, "Gal6S(b1-4)Glc": {"molecular_target": "Gal6S(b1-4)Glc", "method_in_brief": "as §1"}, "Gal6S(b1-4)Glc6S": {"molecular_target": "Gal6S(b1-4)Glc6S", "method_in_brief": "as §1"}, "Gal6S(b1-4)GlcNAc": {"molecular_target": "Gal6S(b1-4)GlcNAc", "method_in_brief": "as §1"}, "Gal6S(b1-4)GlcNAc6S": {"molecular_target": "Gal6S(b1-4)GlcNAc6S", "method_in_brief": "as §1"}, "GalNAc(a1-3)Gal": {"molecular_target": "GalNAc(a1-3)Gal", "method_in_brief": "as §1"}, "GalNAc(a1-3)GalNAc": {"molecular_target": "GalNAc(a1-3)GalNAc", "method_in_brief": "as §1"}, "[16]": {"molecular_target": "GalNAc(a1-3)GalNAc(b1-3)Gal(a1-4)Gal(b1-4)Glc", "method_in_brief": "as §1"}}, "note": "Some of the results follow.", "data": [{"binder": "B1", "values": [{"measurement": "glycan array binding signal (z-score)", "setting": "[1]", "value": -0.14}, {"measurement": "glycan array binding signal (z-score)", "setting": "[2]", "value": -0.529}, {"measurement": "glycan array binding signal (z-score)", "setting": "[3]", "value": 0.864}, {"measurement": "glycan array binding signal (z-score)", "setting": "[4]", "value": -0.295}, {"measurement": "glycan array binding signal (z-score)", "setting": "[5]", "value": 0.17}, {"measurement": "glycan array binding signal (z-score)", "setting": "[6]", "value": -0.108}, {"measurement": "glycan array binding signal (z-score)", "setting": "[7]", "value": -0.352}, {"measurement": "glycan array binding signal (z-score)", "setting": "[8]", "value": 0.841}, {"measurement": "glycan array binding signal (z-score)", "setting": "[9]", "value": 0.21}, {"measurement": "glycan array binding signal (z-score)", "setting": "[10]", "value": 0.112}, {"measurement": "glycan array binding signal (z-score)", "setting": "[11]", "value": -0.077}, {"measurement": "glycan array binding signal (z-score)", "setting": "Gal(b1-4)GlcNAc6P", "value": -0.112}, {"measurement": "glycan array binding signal (z-score)", "setting": "Gal(b1-6)Gal", "value": 1.58}, {"measurement": "glycan array binding signal (z-score)", "setting": "Gal3S(b1-3)GalNAc", "value": 0.079}, {"measurement": "glycan array binding signal (z-score)", "setting": "Gal3S(b1-3)GlcNAc", "value": -0.032}, {"measurement": "glycan array binding signal (z-score)", "setting": "[12]", "value": 0.166}, {"measurement": "glycan array binding signal (z-score)", "setting": "Gal3S(b1-4)Glc", "value": -0.625}, {"measurement": "glycan array binding signal (z-score)", "setting": "Gal3S(b1-4)Glc6S", "value": -0.239}, {"measurement": "glycan array binding signal (z-score)", "setting": "Gal3S(b1-4)GlcNAc", "value": -0.911}, {"measurement": "glycan array binding signal (z-score)", "setting": "[13]", "value": 1.23}, {"measurement": "glycan array binding signal (z-score)", "setting": "[14]", "value": 0.126}, {"measurement": "glycan array binding signal (z-score)", "setting": "[15]", "value": -0.567}, {"measurement": "glycan array binding signal (z-score)", "setting": "Gal3S4S(b1-4)GlcNAc", "value": -0.345}, {"measurement": "glycan array binding signal (z-score)", "setting": "Gal3S6S(b1-4)GlcNAc", "value": 1.25}, {"measurement": "glycan array binding signal (z-score)", "setting": "Gal3S6S(b1-4)GlcNAc6S", "value": 3.98}, {"measurement": "glycan array binding signal (z-score)", "setting": "Gal4S(b1-4)GlcNAc", "value": -0.448}, {"measurement": "glycan array binding signal (z-score)", "setting": "Gal4S6S(b1-4)GlcNAc", "value": 1.44}, {"measurement": "glycan array binding signal (z-score)", "setting": "Gal6P(b1-4)GlcNAc", "value": -0.208}, {"measurement": "glycan array binding signal (z-score)", "setting": "Gal6S(b1-3)GlcNAc", "value": -0.366}, {"measurement": "glycan array binding signal (z-score)", "setting": "Gal6S(b1-3)GlcNAc6S", "value": -0.439}, {"measurement": "glycan array binding signal (z-score)", "setting": "Gal6S(b1-4)Glc", "value": 0.78}, {"measurement": "glycan array binding signal (z-score)", "setting": "Gal6S(b1-4)Glc6S", "value": 0.922}, {"measurement": "glycan array binding signal (z-score)", "setting": "Gal6S(b1-4)GlcNAc", "value": 1.05}, {"measurement": "glycan array binding signal (z-score)", "setting": "Gal6S(b1-4)GlcNAc6S", "value": 1.9}, {"measurement": "glycan array binding signal (z-score)", "setting": "GalNAc(a1-3)Gal", "value": 1.39}, {"measurement": "glycan array binding signal (z-score)", "setting": "GalNAc(a1-3)GalNAc", "value": 0.827}, {"measurement": "glycan array binding signal (z-score)", "setting": "[16]", "value": 0.338}]}]}
